Isolated mass and isolated yield data for one substance are collected here from patent EP0135379 (dated 1985).

The nature of this data set: general procedure: Boc solid-phase peptide synthesis; chloromethylated polystyrene (Merrifield) resin; benzhydrylamine resin; DCC/HOBt (DCC/DMAP for Pmp). As to conditions: whole synthesis, scale 0.5 mmoles.

Turning to Pmp-D-Tyr(Et)-Phe-Val-Asn-Cys(OH), the isolated mass amounted to 65 mg and the isolated yield was determined as 16%.
